PubChem BioAssay AID1508588, Peter MacCallum Cancer Centre – 2020
Aim: 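Knock-downs boosting vemurafenib effects on melanoma cell growth or lactate release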 (primary screen). System: human WM266.4 melanoma cells (BRAF V600 mutant). Reagents: siRNA pool against human genes, 40 nM. Timing: 96 h from transfection to read-out. Treatment: vemurafenib 300 nM (about IC25), added 48 h after transfection, for 48 h; comparison arm got DMSO vehicle only. Read-out: 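Cell gain (DAPI nuclei at end minus before drug, mean of two replicates) and medium lactate by absorbance per cell, both as ratio to non-targeting siRNA, also grouped into fold-change classes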. Reading the numbers: cell gain with vemurafenib: higher = more cell gain than with non-targeting siRNA; lactate per cell with vemurafenib: higher = more lactate made per cell. Active means: 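a knock-down counts as enhancing when its fold-change classes with vehicle and with vemurafenib, taken together, show a stronger drug effect on cell gain or lactate per cell; exact class pairs not stated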. Calls: active = enhances vemurafenib effect; inactive = no enhancement seen.
The deposit covers about 18,000 reagents; below is an unselected part. 790 of them (4.4%) count as active. 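Calls rest on a combination of fold-change classes in drug and vehicle arms, not all shown here.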 Unmarked entries are inactive. Some reagents were tested in more than one well and are listed for each.

| gene knocked down | cell gain with vemurafenib | lactate per cell with vemurafenib |
| --- | --- | --- |
| RORA | 0.81 | 0.5 |
| FN3KRP | 0.32 | 1.21 |
| DNAJB12 | 0.42 | 1.62 |
| TACC2 | 0.15 | 1.96 |
| DPEP1 | 0.67 | 0.55 |
| NFATC2 | 0.5 | 0.85 |
| PAGE1 | 1.06 | 1 |
| LYPLA1 | 0.74 | 0.73 |
| NMUR2 | -0.11 (active) | 0.49 |
| NMUR2 | -0.22 (active) | 1.1 |
| FAM53B | 0.18 | 1.69 |
| LRCH2 | 0.55 (active) | 0.29 |
| KDM4C | 0.94 | 1 |
| PPHLN1 | 0.78 (active) | 0.17 |
| PMS2P3 | 0.3 | 0.56 |

5 entries from above in another layout.
NFATC2
- cell gain with vemurafenib: 0.5
- lactate per cell with vemurafenib: 0.85

PAGE1
- cell gain with vemurafenib: 1.06
- lactate per cell with vemurafenib: 1

LYPLA1
- cell gain with vemurafenib: 0.74
- lactate per cell with vemurafenib: 0.73

NMUR2
- cell gain with vemurafenib: -0.11 (active)
- lactate per cell with vemurafenib: 0.49

NMUR2
- cell gain with vemurafenib: -0.22 (active)
- lactate per cell with vemurafenib: 1.1

The listing continues:
| gene knocked down | cell gain with vemurafenib | lactate per cell with vemurafenib |
| --- | --- | --- |
| HBM | 0.71 | 1.12 |
| H2AC6 | 0.7 | 1.02 |
| TMEM17 | 0.63 | 1.1 |
| ZNF462 | 0.2 | 3 |
| ALDH1L1 | 0.29 | 1.75 |
| SPOP | 0.67 | 1.02 |
| PLP2 | 0.41 (active) | 0.7 |
| RAB9B | 0.47 (active) | 0.66 |
| PKN2 | 0.38 | 0.87 |
| KCNIP3 | 0.6 | 1.52 |
| H4C12 | 1.29 | 0.94 |
| ANKS1B | 0.79 | 0.9 |
| EP400 | 0.33 | 0.3 |
| ALDH3B2 | 0.87 | 0.76 |
| OR2L3 | 0.59 | 1.1 |
| SUDS3 | 0.5 | 0.38 |
| PLA2G5 | 1.15 | 0.32 |
| ANKRD26 | 0.74 (active) | 0.01 |
| PGBD2 | 0.15 | 0.83 |
